According to PubChem BioAssay AID624297 (National Center for Advancing Translational Sciences (NCATS), 2012):
Screen size: about 340,000 compounds; about 6,200 (1.8%) were called active. Inconclusive means that the source gave no clear call. Such entries were picked first, then a sample of the others. Calls come from the whole dose curve; as a rule, active = well fitted activation curve with a large enough effect; inconclusive = small, poorly fitted or top-dose-only effect; inactive = no such curve, though single readings can be large or run the other way. A potency beside an inconclusive call is a rough fit, not a confirmed value.
Potency is the fitted concentration of half-maximal effect.

Assay: A quantitative high throughput screen for small molecules that induce DNA re-replication in SW480 colon adenocarcinoma cells. Note: nearly all actives have a fitted effect of over 55% in size.
Settings: Hoechst DNA content imaging, 48 h; series mostly up to 46.1 µM
Summary of the method: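 Image-based DNA-content assay: after two days of treatment, nuclei were labelled with the DNA dye Hoechst and imaged, and hits were compounds raising the count of nuclei showing high fluorescence intensity.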
For `COc1ccc(-c2nn(C)c(=O)c3ccccc23)cc1NC(=O)COc1ccc(C)cc1`, the Potency was “inactive”. With `O=C1CC(c2ccc(F)cc2)c2cc3c(cc2N1)CCC3` (stereo not given) the Potency was inconclusive: 32.6 µM [activator, partial curve, poor fit]. For `COc1ccccc1NC(=O)COC(=O)CNC(=O)c1ccc(OC)c(OC)c1`, the Potency was “inactive”. With `CC1CN(S(=O)(=O)c2ccc(C(=O)NCCCn3ccnc3)cc2)CC(C)O1` (stereo not given) the Potency was active: 5.8 µM. In the case of `CC(C)COC(=O)c1ccc2c(c1O)C(=O)c1ccccc1C2=O`, the Potency was inconclusive: 23.1 µM [activator, single point]. With `Cc1ccc(C)c(Nc2nc(-c3cccnc3)cs2)c1` the Potency was “inactive”. With `CC1=NN(c2nc(-c3ccc(Cl)cc3)cs2)C(=O)C1` the Potency was “inactive”. In the case of `O=C(c1ccc(Cn2cc(Cl)c([N+](=O)[O-])n2)cc1)N1CCN(Cc2ccccc2)CC1`, the Potency was inconclusive: 29.1 µM [activator, single point]. For `Clc1cccc(-c2ccc(/C=N/n3cnnc3)o2)c1`, the Potency was “inactive”. With `COCCn1c(SC(C(=O)Nc2cc(C)ccc2OC)c2ccccc2)nnc1-c1ccc(Cl)cc1` (stereo not given) the Potency was inconclusive: 16.4 µM [activator, partial curve, poor fit]. For `CCCN(C(=O)Cc1csc(-c2ccccc2)n1)C1CCS(=O)(=O)C1` (stereo not given), the Potency was “inactive”. In the case of `O=C(NNC(=O)c1cc(Br)ccc1O)c1csc(N2CCOCC2)n1`, the Potency was active: 4.11 µM. In the case of `COc1ccc(Cc2nnc(NC(=O)CS(=O)(=O)c3ccccc3)s2)cc1OC`, the Potency was “inactive”. For `CCOc1ccc(CN2CCCC(CO)(Cc3ccc(F)cc3)C2)cc1` (stereo not given), the Potency was “inactive”. For `CCn1c(SCC(=O)NC2CCCCC2)nnc1C(CO)NC(=O)c1ccccc1` (stereo not given), the Potency was “inactive”. In the case of `COc1ccc(-c2cc(-c3nnc(COC(=O)c4ccc(O)cc4)o3)c3ccccc3n2)cc1OC`, the Potency was inconclusive: 23.1 µM [activator, single point]. In the case of `COc1cccc(CN(C)C(=O)CNC(=O)c2sc3ccccc3c2Cl)c1OC`, the Potency was “inactive”. In the case of `N#CC1=C(N)S[C@H](C(=O)C23CC4CC(CC(C4)C2)C3)[C@H]1c1ccncc1`, the Potency was inconclusive: 29.1 µM [activator, single point]. In the case of `O=C(Nc1ccccn1)c1ccc(Br)s1`, the Potency was “inactive”. In the case of `CCN=C1S/C(=C\c2ccc(O)c(OCC)c2)C(=O)N1CC`, the Potency was inconclusive: 6.51 µM [activator, partial curve, poor fit]. With `COc1ccc(/C=C/C(=O)N2CCN(c3ccccn3)CC2)c(OC)c1OC` the Potency was “inactive”. In the case of `CCOC(=O)COc1c(Br)cc(/C=C2\SC(=O)N(CC(=O)N3CCCC3)C2=O)cc1OC`, the Potency was “inactive”. With `O=c1[nH]c(C2CCN(S(=O)(=O)c3ccc(S(=O)(=O)NC4CC4)cc3)CC2)nc2c1nnn2Cc1ccc(F)cc1` the Potency was “inactive”. In the case of `COc1ccc(/C=C/C(=O)OCC(=O)c2ccc3c(c2)NC(=O)CO3)c(OC)c1`, the Potency was inconclusive: 2.06 µM [activator, full curve, poor fit]. With `COc1ccc2c(c1)C(C)CC(C)(C)N2C(=O)CSc1nc2ccccc2s1` (stereo not given) the Potency was inconclusive: 35.5 µM [activator, single point]. With `O=S(=O)([O-])C/C(=C\c1ccc(Cl)cc1)c1cc[n+](CCO)cc1` the Potency was “inactive”. For `COc1cc(OC)cc(C(=O)NC(=S)NCc2ccco2)c1`, the Potency was inconclusive: 11.2 µM [activator, partial curve, poor fit]. For `Cc1ccc(NC(=S)NCc2ccc(Cl)cc2)c(OC(F)F)c1`, the Potency was “inactive”. For `O=C(OCc1nnc(-c2ccccc2)o1)C1CCN(C(=O)c2ccc(Cl)cc2)CC1`, the Potency was inconclusive: 20.6 µM [activator, partial curve, poor fit]. In the case of `C=CCC[C@@H](Cc1ccc(F)cc1)C(=O)OC[C@@H](Cc1c[nH]c2ccccc12)NC(=O)[C@H](CC=C)CC(=O)N(CCO)Cc1ccccc1`, the Potency was inconclusive: 29.1 µM [activator, single point]. In the case of `O=C(/C=C/c1ccco1)Nc1ccc(Oc2ccccc2)cc1`, the Potency was inconclusive: 14.1 µM [activator, single point]. With `O=C1C2CCC(C(O)C2)N1Cc1ccccc1` (stereo not given) the Potency was “inactive”. In the case of `O=C(CSc1ncccn1)Nc1ncc(C(F)(F)F)cc1Cl`, the Potency was “inactive”. For `O=c1c2ccccc2sn1-c1cc(S(=O)(=O)N2CCOCC2)ccc1N1CCCC1`, the Potency was inconclusive: 29.1 µM [activator, single point]. For `CC(C)Cn1c(N)c(C(=O)NCC2CCCO2)c2nc3ccccc3nc21` (stereo not given), the Potency was inconclusive: 2.59 µM [activator, partial curve, poor fit]. With `CCOC(=O)CC(=O)CSc1nc2c(cc1C#N)CCC2` the Potency was inconclusive: 29.1 µM [activator, single point]. For `COc1ccc(-n2nnnc2-c2cnc3cc4c(cc3c2C)OCO4)cc1`, the Potency was “inactive”. With `CCN(CC)CCCN=Cc1c(O)n(-c2ccc(C)cc2)c(=O)c2ccccc12` the Potency was inconclusive: 1.84 µM [activator, partial curve, poor fit]. In the case of `CC(C)(C)NC(=O)C1Cc2ccccc2CN1` (stereo not given), the Potency was inconclusive: 6.51 µM [activator, partial curve, poor fit]. For `COC(=O)C12OCC34C(CC5C(C)=C(O)C(=O)CC5(C)C3C(O)C1O)OC(=O)C(OC(=O)C=C(C)C)C24` (stereo not given), the Potency was inconclusive: 0.0073 µM [activator, full curve, poor fit]. With `COC(=O)[C@@]1(C)[C@H]2C(=O)N(Cc3ccccc3)C(=O)[C@H]2[C@H]2CN=C(SC)N21` the Potency was inconclusive: 0.58 µM [activator, full curve, poor fit]. With `COc1ccc(OCC(=O)Nc2ccc(NC(=O)c3cccs3)c(OC)c2)cc1` the Potency was “inactive”. In the case of `O=C(CCl)Nc1ccc(-c2ccccc2)cc1`, the Potency was inconclusive: 23.1 µM [activator, single point]. For `COc1ccc(Nc2nc(C(=O)N3CCc4cc(OC)c(OC)cc4C3)cs2)cc1`, the Potency was inconclusive: 23.1 µM [activator, single point]. For `NC(=O)c1ccsc1NC(=O)c1ccc([N+](=O)[O-])o1`, the Potency was inconclusive: 5.17 µM [activator, partial curve, poor fit].
